Test results published in patent US7217734B2, “Substituted benzopyrans as selective estrogen receptor-beta agonists” (Eli Lilly and Company, priority 2001, dated 2007).
Some results were stated once for a whole list of compounds, not compound by compound.

Chains of the proteins cited; added tags and fusions are not shown.
UniProt Q92731, whole entry: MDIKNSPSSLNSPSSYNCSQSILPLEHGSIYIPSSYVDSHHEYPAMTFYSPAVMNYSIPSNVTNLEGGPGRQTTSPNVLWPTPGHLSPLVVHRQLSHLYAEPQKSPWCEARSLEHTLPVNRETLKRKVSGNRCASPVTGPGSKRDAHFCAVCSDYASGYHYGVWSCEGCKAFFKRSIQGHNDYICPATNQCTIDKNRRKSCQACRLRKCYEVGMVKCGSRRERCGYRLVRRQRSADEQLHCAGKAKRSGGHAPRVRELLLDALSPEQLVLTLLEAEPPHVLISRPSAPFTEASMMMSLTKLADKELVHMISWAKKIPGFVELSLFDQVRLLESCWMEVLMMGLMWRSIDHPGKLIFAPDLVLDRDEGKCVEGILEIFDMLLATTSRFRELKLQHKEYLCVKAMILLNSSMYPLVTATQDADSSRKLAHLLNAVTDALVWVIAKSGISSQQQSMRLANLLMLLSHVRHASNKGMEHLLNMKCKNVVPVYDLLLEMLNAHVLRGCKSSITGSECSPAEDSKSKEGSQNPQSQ

Biological target: T1, ERbeta Receptor (Homo sapiens, UniProt Q92731)
T1 construct: purchased Pan Vera
Test: Competition ER binding assay (3H-Estradiol), ER beta
Conditions: ERAlpha or ERbeta Receptor, assay as described
Protocol: The competition ER binding assay was run in a buffer containing 50 mM N-[2-hydroxyethyl]piperazine-N′-[2-ethanesulfonic acid (Hepes) pH 7.5, 1.5 mM EDTA, 150 mM NaCl, 10% glycerol, 1 mg/mL ovalbumin, 5 mM DTT, 0.025 μCi per well of ^3H-Estradiol (NEN #NET517 at 118 Ci/mmol, 1 mCi/mL), and 10 ng/well ERAlpha or ERbeta Receptor (Pan Vera). Competing compounds were added at 10 different concentrations. Non-specific binding was determined in the presence of 1 μM of E2 (17-β Estradiol, Sigma, St. Louis, Mo.). The binding reaction (140 μL) was incubated for 4 hours at room temperature, then 70 μL of cold dextran coated charcoal (DCC) buffer was added to each reaction (DCC buffer was prepared by adding 0.75 g of charcoal [Sigma] and 0.25 g of dextran [Pharmacia] per 50 mL of assay buffer). The incubation plates were mixed for 8 minutes on an orbital shaker at 4° C. and then centrifuged at 3,000 rpm for 10 minutes at 4° C. An aliquot of 120 μl of the mix was transferred to another 96-well, white flat bottom plate (Costar) and 175 μl of Wallac Optiphase Hisafe 3 scintillation fluid was added to each well. The plates were sealed and then shaken vigorously on an orbital shaker. After an incubation of 2.5 hrs, the radioactivity was counted in a Wallac Microbeta counter. […] The Kd for ^3H-Estradiol was determined by saturation binding to ERα and ERβ receptors. The IC50 values for compounds were converted to Ki values using the Cheng-Prusoff equation and the Kd values were determined by saturation binding assay.

Activity in the ER binding assay, active:
COc1ccc([C@H]2Oc3ccc(OC)cc3[C@H]3CCC[C@H]32)cc1 (racemic) [Example 22, (^+)-2-(4-methoxyphenyl)-6-methoxy-cyclopentyl[c]3,4-dihydro-2H-1-benzopyran]
Oc1ccc([C@H]2Oc3ccc(C(F)(F)F)cc3[C@H]3CCC[C@H]32)cc1 (racemic) [Example 2, (^+)-2-(4-hydroxyphenyl)-6-trifluoromethyl-cyclopentyl[c]3,4-dihydro-2H-1-benzopyran]
CCC1(CC)CC[C@H]2[C@@H](c3ccc(O)cc3)Oc3ccc(O)cc3[C@H]21 (racemic) [Example 11, (^+)-2-(4-hydroxyphenyl)-6-hydroxy-11,11-diethyl-cyclopentyl[c]3,4-dihydro-2H-1-benzopyran]
Cc1cc2c(cc1O)[C@H]1CCC[C@H]1[C@@H](c1ccc(O)cc1)O2 (racemic) [Example 19, (^+)-2-(4-hydroxyphenyl)-6-hydroxy-7-methyl-cyclopentyl[c]3,4-dihydro-2H-1-benzopyran]
COc1ccc([C@@H]2Oc3ccc(OC)cc3[C@H]3CCC[C@H]32)cc1 (racemic) [Example 23, (^+)-2-(4-methoxyphenyl)-6-methoxy-cyclopentyl[c]3,4-dihydro-2H-1-benzopyran]
COc1cc(O)cc2c1O[C@H](c1ccc(O)cc1)[C@@H]1CCC[C@H]21 (racemic) [Example 9, (^+)-2-(4-hydroxyphenyl)-6-hydroxy-8-methoxy-cyclopentyl[c]3,4-dihydro-2H-1-benzopyran]
CC(C)[C@]1(c2ccc(O)cc2)Oc2ccc(O)cc2[C@@H]2CCC[C@@H]21 [Example 30, (+)-2-(1-methylethyl)-2-(4-hydroxyphenyl)-6-hydroxy-cyclopentyl[c]3,4-dihydro-2H-1-benzopyran]
CC1(C)CC[C@H]2[C@@H](c3ccc(O)cc3)Oc3ccc(O)cc3[C@H]21 (racemic) [Example 10, (^+)-2-(4-hydroxyphenyl)-6-hydroxy-11,11-dimethyl-cyclopentyl[c]3,4-dihydro-2H-1-benzopyran]
NC(=O)c1ccc([C@H]2Oc3ccc(C(N)=O)cc3[C@H]3CCC[C@H]32)cc1 [Example 24, (^+)-2-(4-aminocarbonylphenyl)-6-aminocarbonyl-cyclopentyl[c]3,4-dihydro-2H-1-benzopyran]
COc1ccc([C@H]2Oc3ccc(O)cc3[C@H]3CCC[C@H]32)cc1 (racemic) [Example 27, (^+)-2-(4-methoxyphenyl)-6-hydroxy-cyclopentyl[c]3,4-dihydro-2H-1-benzopyran]
Cc1cc([C@H]2Oc3ccc(O)cc3[C@H]3CCC[C@H]32)ccc1O (racemic) [Example 13, (^+)-2-(4-hydroxy-3-methylphenyl)-6-hydroxy-cyclopentyl[c]3,4-dihydro-2H-1-benzopyran]
NC(=O)c1ccc2c(c1)[C@H]1CCC[C@H]1[C@@H](c1ccc(O)cc1)O2 (racemic) [Example 26, (^+)-2-(4-hydroxyphenyl)-6-aminocarbonyl-cyclopentyl[c]3,4-dihydro-2H-1-benzopyran]
Cc1cc(O)ccc1[C@H]1Oc2ccc(O)cc2[C@H]2CCC[C@H]21 (racemic) [Example 15, (^+)-2-(2-methyl-4-hydroxyphenyl)-6-hydroxy-cyclopentyl[c]3,4-dihydro-2H-1-benzopyran]
C[C@]1(c2ccc(O)cc2)Oc2ccc(O)cc2[C@@H]2CCC[C@@H]21 [Example 28, (^+)-2-methyl-2-(4-hydroxyphenyl)-6-hydroxy-cyclopentyl[c]3,4-dihydro-2H-1-benzopyran]
Oc1ccc([C@H]2Oc3ccc(F)cc3[C@H]3CCC[C@H]32)cc1 (racemic) [Example 4, (^+)-2-(4-hydroxyphenyl)-6-fluoro-cyclopentyl[c]3,4-dihydro-2H-1-benzopyran]
NC(=O)c1ccc([C@H]2Oc3ccc(O)cc3[C@H]3CCC[C@H]32)cc1 (racemic) [Example 25, (^+)-2-(4-aminocarbonylphenyl)-6-hydroxy-cyclopentyl[c]3,4-dihydro-2H-1-benzopyran]
COc1ccc2c(c1)[C@H]1CCC[C@H]1[C@@H](c1ccc(O)cc1)O2 (racemic) [Example 12, (^+)-2-(4-hydroxyphenyl)-6-methoxy-cyclopentyl[c]3,4-dihydro-2H-1-benzopyran]
Cc1cc2c(cc1O)[C@H]1CCC[C@H]1[C@H](c1ccc(O)cc1)O2 (racemic) [Example 20, (^+)-2-(4-hydroxyphenyl)-6-hydroxy-7-methyl-cyclopentyl[c]3,4-dihydro-2H-1-benzopyran]
Cc1cc([C@@H]2Oc3ccc(O)cc3[C@H]3CCC[C@H]32)ccc1O (racemic) [Example 14, (^+)-2-(4-hydroxy-3-methylphenyl)-6-hydroxy-cyclopentyl[c]3,4-dihydro-2H-1-benzopyran]
Cc1ccc2c(c1)[C@H]1CCC[C@H]1[C@@H](c1ccc(O)cc1)O2 (racemic) [Example 3, (^+)-2-(4-hydroxyphenyl)-6-methyl-cyclopentyl[c]3,4-dihydro-2H-1-benzopyran]
CC[C@]1(c2ccc(O)cc2)Oc2ccc(O)cc2[C@@H]2CCC[C@@H]21 [Example 29, (^+)-2-ethyl-2-(4-hydroxyphenyl)-6-hydroxy-cyclopentyl[c]3,4-dihydro-2H-1-benzopyran]
